The supplement of paper PMC10849652
This is one part of the list.

Amino acid sequences for entries named in this document (tags omitted). A change or cut given only in a name is not applied to a line headed by its entry.
UniProt P25205: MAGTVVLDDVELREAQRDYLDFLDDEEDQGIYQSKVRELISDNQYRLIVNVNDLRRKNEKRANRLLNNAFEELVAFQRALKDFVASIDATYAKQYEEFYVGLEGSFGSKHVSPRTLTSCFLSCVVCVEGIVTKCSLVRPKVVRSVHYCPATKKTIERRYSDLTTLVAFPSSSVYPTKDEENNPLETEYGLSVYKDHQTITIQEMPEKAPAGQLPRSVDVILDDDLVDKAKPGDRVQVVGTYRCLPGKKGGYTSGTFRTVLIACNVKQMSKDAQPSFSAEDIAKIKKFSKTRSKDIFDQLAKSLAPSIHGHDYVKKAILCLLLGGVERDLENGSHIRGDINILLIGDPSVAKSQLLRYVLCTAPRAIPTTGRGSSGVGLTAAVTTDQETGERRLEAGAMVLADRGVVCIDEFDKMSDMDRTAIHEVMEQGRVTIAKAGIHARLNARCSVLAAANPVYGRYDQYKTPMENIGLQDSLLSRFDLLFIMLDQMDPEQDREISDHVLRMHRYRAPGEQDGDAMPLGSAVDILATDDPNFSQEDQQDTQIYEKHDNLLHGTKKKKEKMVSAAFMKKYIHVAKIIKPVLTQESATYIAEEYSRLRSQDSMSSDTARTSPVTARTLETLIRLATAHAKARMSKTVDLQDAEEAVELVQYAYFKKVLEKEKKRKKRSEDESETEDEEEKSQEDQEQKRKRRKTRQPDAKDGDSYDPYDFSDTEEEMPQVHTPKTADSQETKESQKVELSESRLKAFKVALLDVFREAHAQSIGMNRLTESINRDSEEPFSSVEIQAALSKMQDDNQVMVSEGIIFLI
UniProt Q68D91: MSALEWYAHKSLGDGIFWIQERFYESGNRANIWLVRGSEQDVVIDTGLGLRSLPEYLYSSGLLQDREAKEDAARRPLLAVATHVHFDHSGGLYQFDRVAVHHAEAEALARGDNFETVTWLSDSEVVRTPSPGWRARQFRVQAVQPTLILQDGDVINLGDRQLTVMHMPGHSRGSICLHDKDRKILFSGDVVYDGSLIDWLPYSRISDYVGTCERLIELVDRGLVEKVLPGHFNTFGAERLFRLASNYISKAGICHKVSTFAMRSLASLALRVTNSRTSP
UniProt Q96N66: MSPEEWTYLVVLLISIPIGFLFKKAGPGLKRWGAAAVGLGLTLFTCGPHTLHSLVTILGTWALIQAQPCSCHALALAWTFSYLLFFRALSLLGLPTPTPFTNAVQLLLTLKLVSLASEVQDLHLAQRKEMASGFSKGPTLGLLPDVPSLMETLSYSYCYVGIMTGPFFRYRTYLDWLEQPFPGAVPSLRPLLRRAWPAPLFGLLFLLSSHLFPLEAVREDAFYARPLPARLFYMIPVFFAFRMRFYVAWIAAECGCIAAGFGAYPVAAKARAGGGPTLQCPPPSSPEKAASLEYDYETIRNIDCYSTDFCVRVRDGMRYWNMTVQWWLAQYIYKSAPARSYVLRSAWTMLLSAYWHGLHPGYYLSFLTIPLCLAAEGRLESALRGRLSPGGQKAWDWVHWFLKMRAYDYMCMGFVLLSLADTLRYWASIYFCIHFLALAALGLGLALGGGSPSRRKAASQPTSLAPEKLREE
UniProt Q06413, whole entry, looked up: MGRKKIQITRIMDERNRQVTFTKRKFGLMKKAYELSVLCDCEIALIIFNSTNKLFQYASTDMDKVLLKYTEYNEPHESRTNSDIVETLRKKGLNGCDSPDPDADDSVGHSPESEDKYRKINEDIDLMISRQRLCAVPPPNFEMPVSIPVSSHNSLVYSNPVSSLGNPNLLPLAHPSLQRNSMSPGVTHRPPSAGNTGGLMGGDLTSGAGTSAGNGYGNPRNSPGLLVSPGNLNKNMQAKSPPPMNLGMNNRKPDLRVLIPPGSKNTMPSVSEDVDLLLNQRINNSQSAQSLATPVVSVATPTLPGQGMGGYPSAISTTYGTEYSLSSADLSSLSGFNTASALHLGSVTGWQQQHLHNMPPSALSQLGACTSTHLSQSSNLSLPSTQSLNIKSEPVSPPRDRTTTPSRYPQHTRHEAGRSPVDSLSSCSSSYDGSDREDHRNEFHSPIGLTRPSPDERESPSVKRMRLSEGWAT
UniProt Q9ULC4: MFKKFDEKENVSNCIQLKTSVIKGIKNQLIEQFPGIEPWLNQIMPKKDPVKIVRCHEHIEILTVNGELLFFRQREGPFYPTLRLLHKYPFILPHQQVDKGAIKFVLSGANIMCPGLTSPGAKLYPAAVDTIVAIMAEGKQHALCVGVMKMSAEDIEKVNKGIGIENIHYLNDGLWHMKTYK
UniProt P40926: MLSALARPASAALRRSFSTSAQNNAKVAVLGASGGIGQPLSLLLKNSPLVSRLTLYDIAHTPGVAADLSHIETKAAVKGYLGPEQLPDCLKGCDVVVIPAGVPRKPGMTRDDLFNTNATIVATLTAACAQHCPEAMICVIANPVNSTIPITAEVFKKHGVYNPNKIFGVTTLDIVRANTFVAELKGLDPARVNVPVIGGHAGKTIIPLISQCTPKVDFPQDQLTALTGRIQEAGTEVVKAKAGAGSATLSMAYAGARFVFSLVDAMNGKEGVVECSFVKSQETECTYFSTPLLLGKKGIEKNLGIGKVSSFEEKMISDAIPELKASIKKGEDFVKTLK
UniProt Q6UB28: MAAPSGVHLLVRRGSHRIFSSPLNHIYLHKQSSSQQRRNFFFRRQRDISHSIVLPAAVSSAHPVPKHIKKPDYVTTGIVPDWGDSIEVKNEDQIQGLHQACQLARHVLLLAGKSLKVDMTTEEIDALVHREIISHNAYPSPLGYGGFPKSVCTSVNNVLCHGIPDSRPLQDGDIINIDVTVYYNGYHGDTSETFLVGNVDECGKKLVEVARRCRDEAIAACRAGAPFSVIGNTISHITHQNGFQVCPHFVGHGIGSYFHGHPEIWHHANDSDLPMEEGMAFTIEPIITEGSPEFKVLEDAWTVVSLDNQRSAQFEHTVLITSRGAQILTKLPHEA
UniProt Q9HCE5: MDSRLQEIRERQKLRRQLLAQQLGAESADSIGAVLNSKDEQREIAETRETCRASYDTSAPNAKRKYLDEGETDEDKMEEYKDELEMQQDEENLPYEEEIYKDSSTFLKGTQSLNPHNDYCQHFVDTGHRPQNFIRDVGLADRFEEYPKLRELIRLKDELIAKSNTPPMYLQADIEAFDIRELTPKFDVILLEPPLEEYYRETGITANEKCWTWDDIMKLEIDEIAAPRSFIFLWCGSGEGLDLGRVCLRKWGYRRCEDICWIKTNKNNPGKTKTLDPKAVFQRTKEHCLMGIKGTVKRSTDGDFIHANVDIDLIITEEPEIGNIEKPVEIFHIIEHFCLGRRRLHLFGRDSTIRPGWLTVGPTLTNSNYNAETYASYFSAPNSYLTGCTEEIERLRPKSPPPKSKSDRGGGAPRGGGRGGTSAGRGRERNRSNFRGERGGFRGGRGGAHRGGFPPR
UniProt Q16626: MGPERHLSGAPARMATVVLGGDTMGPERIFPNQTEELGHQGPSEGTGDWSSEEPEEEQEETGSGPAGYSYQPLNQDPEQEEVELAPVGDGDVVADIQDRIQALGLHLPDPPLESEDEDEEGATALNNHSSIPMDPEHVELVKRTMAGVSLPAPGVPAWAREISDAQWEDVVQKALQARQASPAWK
UniProt O00255, whole entry, looked up: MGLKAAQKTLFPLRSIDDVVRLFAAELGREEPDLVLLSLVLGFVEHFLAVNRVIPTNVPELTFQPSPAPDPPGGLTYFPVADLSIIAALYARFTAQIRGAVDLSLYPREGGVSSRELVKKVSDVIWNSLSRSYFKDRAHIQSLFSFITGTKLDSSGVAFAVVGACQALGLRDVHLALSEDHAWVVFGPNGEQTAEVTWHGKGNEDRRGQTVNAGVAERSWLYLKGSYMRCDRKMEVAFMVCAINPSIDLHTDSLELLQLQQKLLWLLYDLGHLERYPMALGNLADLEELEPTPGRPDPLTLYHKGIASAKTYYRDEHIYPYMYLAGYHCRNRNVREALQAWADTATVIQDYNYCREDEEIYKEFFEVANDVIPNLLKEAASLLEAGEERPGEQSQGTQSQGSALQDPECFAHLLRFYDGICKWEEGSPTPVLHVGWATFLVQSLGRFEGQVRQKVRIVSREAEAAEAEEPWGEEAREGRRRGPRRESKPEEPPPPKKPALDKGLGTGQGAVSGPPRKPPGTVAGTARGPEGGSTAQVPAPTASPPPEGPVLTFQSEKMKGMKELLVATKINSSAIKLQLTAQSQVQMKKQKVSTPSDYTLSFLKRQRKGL
UniProt O95568: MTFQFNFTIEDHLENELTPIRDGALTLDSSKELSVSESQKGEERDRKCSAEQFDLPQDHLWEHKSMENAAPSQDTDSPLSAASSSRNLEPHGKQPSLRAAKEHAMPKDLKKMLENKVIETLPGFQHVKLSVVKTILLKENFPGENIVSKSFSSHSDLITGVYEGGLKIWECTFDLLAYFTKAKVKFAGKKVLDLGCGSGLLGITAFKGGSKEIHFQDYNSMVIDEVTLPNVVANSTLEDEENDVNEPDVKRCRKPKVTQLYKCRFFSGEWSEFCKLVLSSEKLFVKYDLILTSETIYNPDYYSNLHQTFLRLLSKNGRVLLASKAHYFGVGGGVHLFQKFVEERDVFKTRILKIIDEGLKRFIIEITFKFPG
UniProt Q8IVS2: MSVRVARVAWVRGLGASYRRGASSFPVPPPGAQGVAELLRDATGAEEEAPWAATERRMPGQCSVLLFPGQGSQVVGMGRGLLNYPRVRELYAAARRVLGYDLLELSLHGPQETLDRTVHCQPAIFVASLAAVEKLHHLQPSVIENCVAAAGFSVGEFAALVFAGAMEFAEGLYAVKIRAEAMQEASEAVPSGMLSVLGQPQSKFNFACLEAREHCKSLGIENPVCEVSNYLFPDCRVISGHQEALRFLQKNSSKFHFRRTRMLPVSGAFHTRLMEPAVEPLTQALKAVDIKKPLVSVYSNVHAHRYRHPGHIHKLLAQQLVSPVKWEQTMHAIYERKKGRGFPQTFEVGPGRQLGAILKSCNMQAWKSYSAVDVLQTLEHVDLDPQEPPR
UniProt O95983: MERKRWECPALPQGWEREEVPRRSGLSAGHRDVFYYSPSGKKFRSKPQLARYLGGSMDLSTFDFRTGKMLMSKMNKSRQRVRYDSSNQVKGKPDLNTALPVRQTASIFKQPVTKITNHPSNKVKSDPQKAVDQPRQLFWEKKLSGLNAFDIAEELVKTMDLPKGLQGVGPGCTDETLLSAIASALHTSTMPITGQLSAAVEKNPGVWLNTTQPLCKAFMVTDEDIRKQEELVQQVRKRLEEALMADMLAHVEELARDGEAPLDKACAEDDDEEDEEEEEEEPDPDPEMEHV
UniProt P40925: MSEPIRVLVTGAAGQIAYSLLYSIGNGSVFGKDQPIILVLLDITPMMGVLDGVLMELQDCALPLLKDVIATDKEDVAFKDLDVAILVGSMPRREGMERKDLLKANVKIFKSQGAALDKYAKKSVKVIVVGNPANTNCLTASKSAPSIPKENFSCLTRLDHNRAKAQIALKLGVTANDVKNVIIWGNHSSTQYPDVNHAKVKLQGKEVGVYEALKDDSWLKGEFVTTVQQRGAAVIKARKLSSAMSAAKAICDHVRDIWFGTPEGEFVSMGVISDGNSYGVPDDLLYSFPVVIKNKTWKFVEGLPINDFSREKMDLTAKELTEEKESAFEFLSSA
UniProt Q86V88: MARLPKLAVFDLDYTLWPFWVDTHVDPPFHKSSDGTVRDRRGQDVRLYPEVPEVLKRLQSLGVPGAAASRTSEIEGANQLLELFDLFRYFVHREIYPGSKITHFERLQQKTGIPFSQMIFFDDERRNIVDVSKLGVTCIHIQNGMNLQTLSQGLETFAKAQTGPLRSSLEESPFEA
UniProt Q86XN8: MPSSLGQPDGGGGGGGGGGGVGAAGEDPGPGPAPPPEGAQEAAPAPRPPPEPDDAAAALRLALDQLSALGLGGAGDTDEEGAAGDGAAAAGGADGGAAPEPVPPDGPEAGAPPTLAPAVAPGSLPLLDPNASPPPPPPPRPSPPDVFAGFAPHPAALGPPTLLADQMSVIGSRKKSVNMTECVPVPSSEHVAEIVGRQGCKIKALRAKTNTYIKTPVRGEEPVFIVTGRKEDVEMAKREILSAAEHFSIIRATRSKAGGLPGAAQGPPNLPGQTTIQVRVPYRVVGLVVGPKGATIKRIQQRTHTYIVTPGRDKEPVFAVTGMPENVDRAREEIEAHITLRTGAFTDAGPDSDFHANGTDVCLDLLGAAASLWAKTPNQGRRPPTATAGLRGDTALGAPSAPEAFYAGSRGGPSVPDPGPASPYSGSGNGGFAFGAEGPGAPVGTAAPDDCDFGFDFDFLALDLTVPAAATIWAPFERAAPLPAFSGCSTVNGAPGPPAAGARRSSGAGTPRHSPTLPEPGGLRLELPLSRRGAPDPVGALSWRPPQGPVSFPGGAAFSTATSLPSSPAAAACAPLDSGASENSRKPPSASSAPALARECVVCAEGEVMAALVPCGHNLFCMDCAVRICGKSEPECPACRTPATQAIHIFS
UniProt Q9H204: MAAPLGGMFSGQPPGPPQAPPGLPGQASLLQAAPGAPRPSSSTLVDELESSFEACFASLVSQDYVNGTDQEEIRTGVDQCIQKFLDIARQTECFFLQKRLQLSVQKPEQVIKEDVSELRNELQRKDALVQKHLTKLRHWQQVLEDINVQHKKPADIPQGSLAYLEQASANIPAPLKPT

Compound: NC(=O)Nc1cc(-c2cccc(F)c2)sc1C(=O)N[C@H]1CCCNC1
Experiment: log2 fold change, soluble protein after heating vs DMSO (PISA); higher = thermal stabilisation; K562 lysate, 10 uM; active = over 0.2 and 3.5 SD of the protein, either way, in both replicates (recomputed)
How it was run: (§1)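 Thermal stability, expressed as log-two fold change relative to solvent controls, is given from duplicates. Crude K562 extract in PBS pH 7.4 with 1 mM MgCl2, at 1 mg/mL protein, was treated with 10 μM compound for 30 min and heated in aliquots for 3 min across 48°C-58°C. After pooling, adjustment to 0.5% NP-40 at 4°C and centrifugation at 21,000xg for 90 min, supernatant protein was measured by TMTpro 16plex LC-MS/MS with channel sums equalised.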

log2 fold change, inactive:
MCM3 isoform 2 (UniProt P25205) -0.014
MBLAC2 (UniProt Q68D91) 0
MFF isoform 2 (UniProt Q9GZY8) 0.007
MED15 (UniProt Q96RN5) 0.014
MBD4 (UniProt O95243) -0.064
MBOAT7 (UniProt Q96N66) 0.023
MEF2C isoform 2 (UniProt Q06413) -0.094
MED20 (UniProt Q9H944) 0.007
MDC1 (UniProt Q14676) 0.012
MCTS1 isoform 3 (UniProt Q9ULC4) -0.004
MDH2 (UniProt P40926) -0.001
MDN1 (UniProt Q9NU22) 0.035
METAP1D (UniProt Q6UB28) 0.028
MEF2C isoform 5 (UniProt Q06413) 0.036
METTL14 (UniProt Q9HCE5) -0.003
MED24 (UniProt O75448) 0.059
MCCC1 (UniProt Q96RQ3) 0.035
MFSD4B (UniProt Q5TF39) 0.02
MEA1 (UniProt Q16626) 0.077
MED9 (UniProt Q9NWA0) -0.045
MBIP (UniProt Q9NS73) 0.097
MED12 isoform 2 (UniProt Q93074) 0.034
MFSD1 isoform 6 (UniProt Q9H3U5) -0.014
MEN1 (UniProt O00255) 0.075
METTL18 (UniProt O95568) 0.021
MFN2 (UniProt O95140) 0.03
MEPCE (UniProt Q7L2J0) 0.009
MCAT (UniProt Q8IVS2) -0.021
MBD3 (UniProt O95983) 0.005
MDH1 isoform 3 (UniProt P40925) -0.034
MCAM (UniProt P43121) 0.029
MATR3 (UniProt P43243) -0.003
MDP1 (UniProt Q86V88) 0.002
MEX3D isoform 3 (UniProt Q86XN8) 0.056
MCU (UniProt Q8NE86) 0.011
METTL3 (UniProt Q86U44) -0.008
MCUR1 (UniProt Q96AQ8) -0.01
MED28 (UniProt Q9H204) -0.013
METAP1 (UniProt P53582) 0.025

Compound: NC(=O)c1cnc(N[C@@H]2CCCC[C@@H]2N)nc1Nc1cccc(-n2nccn2)c1
Experiment: as above
How it was run: as §1

log2 fold change, inactive:
MCM3 isoform 2 (UniProt P25205) 0.003
MBLAC2 (UniProt Q68D91) -0.005
MFF isoform 2 (UniProt Q9GZY8) 0.016
MED15 (UniProt Q96RN5) 0.031
MBD4 (UniProt O95243) -0.108
MBOAT7 (UniProt Q96N66) -0.014
MEF2C isoform 2 (UniProt Q06413) 0.048
MED20 (UniProt Q9H944) 0.003
MDC1 (UniProt Q14676) -0.01
MCTS1 isoform 3 (UniProt Q9ULC4) -0.046
MDH2 (UniProt P40926) -0.03
MDN1 (UniProt Q9NU22) -0.001
METAP1D (UniProt Q6UB28) 0.022
MEF2C isoform 5 (UniProt Q06413) 0.097
METTL14 (UniProt Q9HCE5) 0.031
MED24 (UniProt O75448) 0.001
MCCC1 (UniProt Q96RQ3) 0.008
MFSD4B (UniProt Q5TF39) 0
MEA1 (UniProt Q16626) -0.102
MED9 (UniProt Q9NWA0) -0.115
MBIP (UniProt Q9NS73) 0.038
MED12 isoform 2 (UniProt Q93074) 0.019
MFSD1 isoform 6 (UniProt Q9H3U5) 0.035
MEN1 (UniProt O00255) 0.224
METTL18 (UniProt O95568) 0.033
MFN2 (UniProt O95140) 0.038
MEPCE (UniProt Q7L2J0) 0
MCAT (UniProt Q8IVS2) -0.001
MBD3 (UniProt O95983) 0.035
MDH1 isoform 3 (UniProt P40925) -0.037
MCAM (UniProt P43121) 0.001
MATR3 (UniProt P43243) -0.023
MDP1 (UniProt Q86V88) -0.013
MEX3D isoform 3 (UniProt Q86XN8) 0.076
MCU (UniProt Q8NE86) 0.025
METTL3 (UniProt Q86U44) -0.026
MCUR1 (UniProt Q96AQ8) -0.007
MED28 (UniProt Q9H204) -0.005
METAP1 (UniProt P53582) -0.012
